In patent publication EP4408435B1, “C[…], CITRAL AND SODIUM ALGINATE AS A FILM-FORMING SUBSTANCE FOR PROPHYLAXIS OF INFECTIONS” (priority 2021, dated 2023) one finds Taste data, which are given here for one compound.

The structures appear in SMILES notation.

The nature of this data set: Testing of taste.

In the case of `OCC(O)CO` [Glycerol], the Taste entry is on record as “Special sweet taste”.
